Results are given in words; binding and its absence hold for the method and conditions named. In cells and extracts the contact can be indirect. Here binding means that the protein was enriched with, or labelled near, the bait; the list need not be complete.
Target: mBidWT–BirA* (mouse) (UniProt P70444)
Assay: proximity labelling; BioID in HeLa cells stably expressing BirA* baits; 50 µM biotin for 16 h with nocodazole (mitotic enrichment) or DMSO (unsynchronised); lysis in RIPA, streptavidin-affinity purification, label-free LC–MS/MS (Progenesis QI); enrichment against the paired venus-BirA* control; three independent experiments

Protein sequences, listed by entry. Tags and fused reporters are not part of them.
UniProt P70444: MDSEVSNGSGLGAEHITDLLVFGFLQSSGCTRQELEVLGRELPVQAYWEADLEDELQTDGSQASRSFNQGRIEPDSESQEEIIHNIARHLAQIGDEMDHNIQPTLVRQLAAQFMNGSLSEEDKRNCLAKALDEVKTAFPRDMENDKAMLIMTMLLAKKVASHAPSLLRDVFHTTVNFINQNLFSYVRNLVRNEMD

B1: Septin 9 (protein, UniProt Q9UHD8 1-586)
chain: MKKSYSGGTRTSSGRLRRLGDSSGPALKRSFEVEEVETPNSTPPRRVQTPLLRATVASSTQKFQDLGVKNSEPSARHVDSLSQRSPKASLRRVELSGPKAAEPVSRRTELSIDISSKQVENAGAIGPSRFGLKRAEVLGHKTPEPAPRRTEITIVKPQESAHRRMEPPASKVPEVPTAPATDAAPKRVEIQMPKPAEAPTAPSPAQTLENSEPAPVSQLQSRLEPKPQPPVAEATPRSQEATEAAPSCVGDMADTPRDAGLKQAPASRNEKAPVDFGYVGIDSILEQMRRKAMKQGFEFNIMVVGQSGLGKSTLINTLFKSKISRKSVQPTSEERIPKTIEIKSITHDIEEKGVRMKLTVIDTPGFGDHINNENCWQPIMKFINDQYEKYLQEEVNINRKKRIPDTRVHCCLYFIPATGHSLRPLDIEFMKRLSKVVNIVPVIAKADTLTLEERVHFKQRITADLLSNGIDVYPQKEFDEDSEDRLVNEKFREMIPFAVVGSDHEYQVNGKRILGRKTKWGTIEVENTTHCEFAYLRDLLIRTHMQNIKDITSSIHFEAYRVKRLNEGSSAMANGMEEKEPEAPEM
B1 was tested, and the binding was “binds”.
